# Primary screen of a compound library

Protein sequences, listed by entry. Tags and fused reporters are not part of them.
UniProt E9BF75, entry or part of it: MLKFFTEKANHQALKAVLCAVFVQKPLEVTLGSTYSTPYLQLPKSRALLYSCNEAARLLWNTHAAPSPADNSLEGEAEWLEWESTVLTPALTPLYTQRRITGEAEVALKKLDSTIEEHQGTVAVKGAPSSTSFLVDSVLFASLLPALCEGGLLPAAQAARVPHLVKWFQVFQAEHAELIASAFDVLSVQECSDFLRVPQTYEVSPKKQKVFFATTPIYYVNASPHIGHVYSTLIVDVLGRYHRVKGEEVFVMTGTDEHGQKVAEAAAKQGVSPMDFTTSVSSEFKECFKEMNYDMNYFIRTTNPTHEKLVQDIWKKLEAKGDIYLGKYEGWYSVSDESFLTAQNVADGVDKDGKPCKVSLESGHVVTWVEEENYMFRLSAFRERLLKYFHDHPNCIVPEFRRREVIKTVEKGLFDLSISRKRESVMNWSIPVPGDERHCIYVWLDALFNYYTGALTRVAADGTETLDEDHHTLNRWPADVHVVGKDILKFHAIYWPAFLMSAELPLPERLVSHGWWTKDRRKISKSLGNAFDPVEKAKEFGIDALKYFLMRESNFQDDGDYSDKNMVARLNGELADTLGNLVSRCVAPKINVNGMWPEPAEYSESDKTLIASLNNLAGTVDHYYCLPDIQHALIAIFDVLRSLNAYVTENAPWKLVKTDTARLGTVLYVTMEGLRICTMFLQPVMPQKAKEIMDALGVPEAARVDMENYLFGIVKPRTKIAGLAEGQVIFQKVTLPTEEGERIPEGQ

Results are percentages, as filed. How 0% and 100% were set is not recorded. Most values in the screen are low, and negative values occur. The compounds are a random part of those screened.

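Methionyl-tRNA synthetase (putative), Leishmania donovani (UniProt E9BF75). Primary screen of methionyl-tRNA synthetase; the read-out is not stated. The test concentration is not given. The values are filed as inhibition. About 68,000 compounds were tested under these conditions; 0.035% (about 24) showed 50% or more at least once.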

Compound	inhibition
CN(CCO)Cc1cc(=O)n2cc(Br)ccc2n1	-0.2597
Cc1ccsc1[C@@H]1CCN(C(=O)CCOc2ccccc2)C[C@H]1O	6.989
c1csc(-c2noc(CN3CCc4cncnc4C3)n2)c1	23.33
Nc1cc2c(nn1)CCN(C(=O)Cc1ccc3c(c1)CCCC3)C2	17.6
CCc1ccc(CNC(=O)c2ccc(N3CCOC3=O)cc2)s1	-0.8287
Cc1ccc(S(=O)(=O)N2CCOCC2C#N)cc1Br (stereo not given)	12.09
CCc1cc(NCCCNS(C)(=O)=O)nc(-c2ccccn2)n1	13.69
O=C(c1cn(Cc2ccc(Cl)cc2)nn1)N1CCCO1	13.92
CN(CC1CCOCC1)C(C(=O)O)c1cccc(F)c1F (stereo not given)	4.375
Cc1nc(C)n(CC2CCCN(Cc3ccc(F)cc3C#N)C2)n1 (stereo not given)	20
CN(C)CCNC(=O)c1cc2c(s1)CCN2S(C)(=O)=O	11.78
O[C@@]1(c2ccccn2)CC[C@H]2CN(Cc3cccc(Cl)c3Cl)C[C@H]21	14.73
CCN(CC)c1ncnc2c1CCN(c1ccc(C)nn1)CC2	21.3
CC(NC(=O)NCCNc1cnccn1)c1cccs1 (stereo not given)	10.93
Cn1nnnc1SCCNC(=O)C1CCN(C(=O)C2CCC2)CC1	8.933
O=C(CN1CCOCS1(=O)=O)NCCc1ccc(Cl)cc1	19.93
CC1CCCN(Cc2ccc(C(N)=O)cc2)C1 (stereo not given)	10.08
CCOc1ccc(NC(=O)NCC(C)(O)c2cccs2)cc1 (stereo not given)	13.82
Cc1nnc2n1CC(CNCc1nc(-c3cccs3)no1)CC2 (stereo not given)	9.375
COCCN1CC(O)CN(C(=O)c2cccc(C(F)(F)F)c2)CC1=O (stereo not given)	9.589
CCN1CCCC(c2c(-c3ccccc3)ncn2CCc2c[nH]cn2)C1 (stereo not given)	15.79
CC1(C)CN=C(N2CCN(CC3CCCO3)CC2)S1 (stereo not given)	9.034
CN1N=C(C(=O)N(Cc2ccco2)C2CCCC2)CCC1=O	13.5
CS(=O)(=O)NC[C@]12COC[C@H]1CN(C(=O)C1CC(F)(F)C1)C2	8.786
CS(=O)(=O)N1CCCC(Cc2ccnc(Nc3ccccn3)c2)C1 (stereo not given)	-80.43
Cn1ccc(NC(=O)Cc2cccc(F)c2)n1	6.667
Cn1cc(NS(=O)(=O)c2ccc(C(F)(F)F)cc2)ccc1=O	8.939
COC(=O)CN(C(=O)c1ccc(-n2ccnc2)cc1)C1CC1	9.399
O=C(CCn1cncn1)Nc1ccc(F)cc1OCC1CC1	14.38
CC(O)CC(C)(C)CNC(=O)Nc1cnn(-c2ccccc2F)c1 (stereo not given)	1.902
CCc1ncc(CN2CCC(CCc3ccccc3)CC2)cn1	0
CCCS(=O)(=O)N1CCN(C(=O)CO)CC1	14.25
O=C(NCCn1nc2ccccn2c1=O)c1cc[nH]n1	9.922
O=C(Cn1nnn(-c2cccs2)c1=O)N(CC1CCOC1)C1CC1 (stereo not given)	13.31
CCc1nc(C(=O)N(CC)CC(=O)Nc2cc(Cl)ccc2C)c[nH]1	5.222
Cc1nccn1C1CCCN(C(=O)c2cccc(Cn3ccnc3)c2)C1 (stereo not given)	13.64
CC(C)CSCCCNC(=O)C1CCC1	11.2
O=C1CCCN1CCN1CCCCC1Cn1cncn1 (stereo not given)	5.978
O=C(NCc1ccccc1)N1CCC(Oc2ncccc2Cl)CC1	-3.623
CC(=O)N1CCC(N2CC[C@H](c3nc4cc(C)ccc4o3)C2)CC1	12.78
CN(C)CCNc1ncccc1CNC(=O)Nc1cc(F)cc(F)c1	7.853
N#Cc1ccc(CNC(=O)NCCNC(=O)C2CCCC2)c(F)c1	8.824
COc1cccc(C(=O)NCC(O)c2cccs2)c1 (stereo not given)	8.374
CNC(=O)c1cccc(CN2CCN(c3ccncc3)CC2)c1	12.83
Cc1[nH]/c(=N\C(=O)c2csc(NC3CCCC3)n2)sc1C	19.88
Cc1n[nH]c(C2CN(CCNC3CCCCC3)CCO2)n1 (stereo not given)	6.361
CC(=O)N(Cc1ncc(C)o1)C1CCN(Cc2nnc(C3CC3)o2)C1 (stereo not given)	4.31
CC(C)N1CCC(c2nccnc2Nc2cnccn2)CC1	0.5249
CS(=O)(=O)NCCCN1CCCCC1c1cc2ccccc2[nH]1 (stereo not given)	11.74
Cc1cc(C)nc(C2CCN(C3CCCCC3)C2)n1 (stereo not given)	12.77
CN1CCN(Cc2ccoc2)Cc2cccnc21	10.73
CC(C)(C)n1cc(CNc2ccc(CNS(C)(=O)=O)cc2)cn1	10.9
CCN(Cc1cnn(CC)c1)C(=O)Cn1c(=O)c(C)nc2ccccc21	8.493
CCc1cc(CN(C)C(=O)CN2CC3(CCNCC3)OC2=O)on1	17.38
COCCCN(C)c1ncccc1I	2.899

6 of the entries, repeated:

* O=C(CCn1cncn1)Nc1ccc(F)cc1OCC1CC1 | 14.38%
* CC(=O)N(Cc1ncc(C)o1)C1CCN(Cc2nnc(C3CC3)o2)C1 (stereo not given) | 4.31%
* CC(O)CC(C)(C)CNC(=O)Nc1cnn(-c2ccccc2F)c1 (stereo not given) | 1.902%
* CCc1cc(CN(C)C(=O)CN2CC3(CCNCC3)OC2=O)on1 | 17.38%
* CCc1ccc(CNC(=O)c2ccc(N3CCOC3=O)cc2)s1 | -0.8287%
* Nc1cc2c(nn1)CCN(C(=O)Cc1ccc3c(c1)CCCC3)C2 | 17.6%

From ChEMBL document CHEMBL3988442, “University of Dundee, Small-Polar-MMV Screening Library” (2021).